{"source": "patent US20080318326A1", "about": "(priority 2005, published 2008)", "key": {"[1]": {"tested_on": "Na+ ion channels (voltage gated sodium ion channels)", "assay": "Sodium ion channel currents in filter supported bilayer lipid membrane", "format": "biochemical"}, "[2]": {"tested_on": "sodium ion channel proteins", "format": "biochemical"}}, "note": "At least one compound was matched to its structure with a doubt left."}
{"compound": "COc1ccc(C(=O)O[C@H]2CC[C@@]3(C)[C@@H]4CC[C@H]5[C@]6(O)C[C@H](O)[C@@]7(O)[C@@H](CN8C[C@@H](C)CC[C@H]8[C@@]7(C)O)[C@]6(O)C[C@@]53O[C@]24O)cc1OC", "note": "[veratridine]", "values": [{"measurement": "effect on sodium channels", "setting": "[1]", "value": "activation"}, {"measurement": "current measured after application", "setting": "[2]", "value": "current measured increases"}]}
